Results deposited as PubChem BioAssay AID652259 (Drosophila RNAi Screening Center, 2013).
The deposit covers about 22,000 reagents; shown is a random part of those that have a named target and a result. Over the whole deposit, 233 (1.1%) are marked active. 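Light values are raw, unnormalised plate reads; the ratio scores behind the reporter calls were not deposited.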 Unmarked entries are inactive. Reagents against one gene are numbered here. Not stated in the record: the amount of reagent, the time to read-out, the dose of the treatment.

Purpose: 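Genome-wide hunt for genes that control Wingless pathway activity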 (primary screen)
Cells: Drosophila clone 8 imaginal disc epithelial cells
Reagents: long dsRNA against Drosophila genes
Treatment: pathway stimulated by co-transfected Wingless expression plasmid
Detection: 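Firefly luciferase from a tcf-site Wingless reporter, measured alongside co-transfected Renilla luciferase that tracks transfection; pathway stimulated by a Wingless plasmid; the firefly-to-Renilla ratio is not deposited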
Scale: firefly reporter light: higher = more Wg reporter light, before normalisation; Renilla control light: higher = more transfected or surviving cells
Call rule: 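a knock-down is a candidate when at least two out of four statistical tests show it departing from its plate mean; one test alone signals a weak candidate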
Calls: active = candidate regulator (raises or lowers reporter); inactive = not a candidate

| Gene | reagent no. | firefly reporter light, replicate 1 | firefly reporter light, replicate 2 | Renilla control light, replicate 1 | Renilla control light, replicate 2 |
| --- | --- | --- | --- | --- | --- |
| CG13305 | 1 | 1619 | 5366 | 896 | 1479 |
| CG14823 | 1 | 3536 | – | 2018 | – |
| Cog4 | 1 | 10500 | – | 3072 | – |
| speck | 1 | 7988 | – | 2839 | – |
| rt | 1 | 6186 | – | 2170 | – |
| Bbd | 1 | 7536 | – | 2428 | – |
| mei-41 | 1 | 9272 | – | 4877 | – |
| CG33337 | 1 | 5559 | – | 1657 | – |
| CG3038 | 1 | 28176 | – | 17373 | – |
| CG14626 | 1 | 16045 | – | 11290 | – |
| ninaD | 1 | 2693 | 7168 | 1153 | 2564 |
| ox | 1 | 6070 | – | 2328 | – |

Not a retest: entries from further up.
| Gene | reagent no. | firefly reporter light, replicate 1 | firefly reporter light, replicate 2 | Renilla control light, replicate 1 | Renilla control light, replicate 2 |
| --- | --- | --- | --- | --- | --- |
| CG33337 | 1 | 5559 | – | 1657 | – |
| CG3038 | 1 | 28176 | – | 17373 | – |
| CG14626 | 1 | 16045 | – | 11290 | – |

The list goes on:
| Gene | reagent no. | firefly reporter light, replicate 1 | firefly reporter light, replicate 2 | Renilla control light, replicate 1 | Renilla control light, replicate 2 |
| --- | --- | --- | --- | --- | --- |
| CG12017 | 1 | 6771 | – | 2866 | – |
| CG9609 | 1 | 2520 | 6086 | 1113 | 2112 |
| CG3649 | 1 | 3804 | 10292 | 697 | 4976 |
| Pde1c | 1 | 2716 | 6562 | 1192 | 3637 |
| Pde1c | 2 | 4928 | 7109 | 1155 | 2802 |
| Pde1c | 3 | 2880 | 7365 | 1075 | 2364 |
| Pde1c | 4 | 2792 | 7307 | 1429 | 3997 |
| Pde1c | 5 | 3473 | 5704 | 1403 | 3185 |
| Pde1c | 6 | 1606 | 7161 | 960 | 3459 |
| Prp39 | 1 | 4337 | 12295 | 995 | 2009 |
| CG10433 | 1 | 20512 | – | 4768 | – |
| Nup44A | 1 | 13482 | – | 3427 | – |
| CG31949 | 1 | 22855 | – | 10672 | – |
| CG3199 | 1 | 11873 | – | 2597 | – |
| Rh7 | 1 | 4868 | – | 2294 | – |
| Sply | 1 | 4592 | – | 1277 | – |
| CG14636 | 1 | 14246 | – | 4534 | – |
